The list shows a part of the results.
Legend:
Test in all cases: log2 fold change, soluble protein after heating vs DMSO (PISA); higher = thermal stabilisation; K562 lysate, 10 uM; active = over 0.2 and 3.5 SD of the protein, either way, in both replicates (recomputed)
[1] = compound: C1=CC=C(C=C1)[C@H](COC2=CC3=C(C=C2)NC(=O)N3)NC(=O)C4=CC=CN(C4=O)CC5=CC(=C(C=C5)F)F
Outline: (§1)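 Soluble protein was defined as the supernatant remaining after 21,000xg for 90 min, following pooling of heated aliquots and adjustment to 0.5% NP-40 at 4°C. Before that, crude K562 extract at 1 mg/mL protein in PBS pH 7.4 with 1 mM MgCl2 was treated with 10 μM compound for 30 min and heated for 3 min across 48°C-58°C. Quantification used TMTpro 16plex LC-MS/MS with channel sums equalised, and values are log-two fold changes in thermal stability relative to solvent controls from duplicates.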

The chains behind the UniProt entries cited, without tags or fusion partners. Where a name states a change or a piece, a line headed by the entry shows the natural chain unless it says otherwise.
UniProt O43852: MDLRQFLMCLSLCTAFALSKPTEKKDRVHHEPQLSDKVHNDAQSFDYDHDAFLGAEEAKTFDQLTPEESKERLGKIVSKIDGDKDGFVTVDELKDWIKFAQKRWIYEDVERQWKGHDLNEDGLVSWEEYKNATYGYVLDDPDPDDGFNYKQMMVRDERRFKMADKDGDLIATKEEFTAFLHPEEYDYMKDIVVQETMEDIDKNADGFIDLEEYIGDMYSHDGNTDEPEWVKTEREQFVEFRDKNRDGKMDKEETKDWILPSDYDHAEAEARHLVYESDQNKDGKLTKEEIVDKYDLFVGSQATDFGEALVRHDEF
UniProt P49069: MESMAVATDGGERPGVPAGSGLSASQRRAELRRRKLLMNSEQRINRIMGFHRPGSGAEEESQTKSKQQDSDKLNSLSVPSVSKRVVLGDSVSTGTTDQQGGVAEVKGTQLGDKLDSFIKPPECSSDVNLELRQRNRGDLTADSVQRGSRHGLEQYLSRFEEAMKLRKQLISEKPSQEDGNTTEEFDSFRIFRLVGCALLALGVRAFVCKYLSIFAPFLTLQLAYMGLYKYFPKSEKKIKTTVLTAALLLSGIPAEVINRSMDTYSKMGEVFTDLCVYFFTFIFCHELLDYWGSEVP
UniProt Q9Y6E2: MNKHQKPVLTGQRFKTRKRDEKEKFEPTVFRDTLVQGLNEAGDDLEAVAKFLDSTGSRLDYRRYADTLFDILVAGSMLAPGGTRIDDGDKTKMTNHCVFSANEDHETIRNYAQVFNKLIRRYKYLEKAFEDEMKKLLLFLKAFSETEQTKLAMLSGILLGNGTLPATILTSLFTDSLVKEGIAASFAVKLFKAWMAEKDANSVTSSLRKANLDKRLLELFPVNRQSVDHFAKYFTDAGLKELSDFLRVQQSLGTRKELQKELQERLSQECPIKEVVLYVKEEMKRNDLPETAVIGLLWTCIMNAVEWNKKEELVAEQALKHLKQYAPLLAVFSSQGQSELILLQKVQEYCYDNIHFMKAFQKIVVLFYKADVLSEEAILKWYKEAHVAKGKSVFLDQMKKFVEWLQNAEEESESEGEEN
UniProt Q96GQ5: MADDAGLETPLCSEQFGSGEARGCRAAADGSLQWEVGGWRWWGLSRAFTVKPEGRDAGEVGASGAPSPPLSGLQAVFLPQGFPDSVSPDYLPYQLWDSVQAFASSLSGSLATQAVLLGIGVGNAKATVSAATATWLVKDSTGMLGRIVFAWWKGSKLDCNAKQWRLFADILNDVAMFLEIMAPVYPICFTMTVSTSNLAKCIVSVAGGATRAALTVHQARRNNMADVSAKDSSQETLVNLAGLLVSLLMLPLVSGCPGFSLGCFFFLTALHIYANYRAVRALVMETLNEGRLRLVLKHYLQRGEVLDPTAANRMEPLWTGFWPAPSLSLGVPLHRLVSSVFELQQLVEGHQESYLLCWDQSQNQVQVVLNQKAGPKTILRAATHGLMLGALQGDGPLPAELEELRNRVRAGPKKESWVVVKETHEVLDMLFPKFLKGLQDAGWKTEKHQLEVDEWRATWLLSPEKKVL
UniProt Q6P5X5: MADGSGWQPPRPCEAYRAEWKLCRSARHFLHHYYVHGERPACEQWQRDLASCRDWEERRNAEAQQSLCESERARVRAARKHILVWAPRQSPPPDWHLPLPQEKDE
UniProt P27797, whole entry, looked up: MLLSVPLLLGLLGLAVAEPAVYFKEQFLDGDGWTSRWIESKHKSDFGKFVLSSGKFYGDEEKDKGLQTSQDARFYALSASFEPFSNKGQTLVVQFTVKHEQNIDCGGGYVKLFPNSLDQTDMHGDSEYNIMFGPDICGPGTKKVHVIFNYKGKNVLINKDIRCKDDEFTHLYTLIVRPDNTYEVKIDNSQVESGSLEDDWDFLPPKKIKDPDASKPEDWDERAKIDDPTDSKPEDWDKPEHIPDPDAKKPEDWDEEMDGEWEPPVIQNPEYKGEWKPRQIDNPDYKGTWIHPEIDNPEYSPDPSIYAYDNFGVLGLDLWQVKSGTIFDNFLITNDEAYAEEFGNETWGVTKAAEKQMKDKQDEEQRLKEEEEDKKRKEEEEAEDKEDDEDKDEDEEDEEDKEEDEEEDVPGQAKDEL
UniProt Q07021: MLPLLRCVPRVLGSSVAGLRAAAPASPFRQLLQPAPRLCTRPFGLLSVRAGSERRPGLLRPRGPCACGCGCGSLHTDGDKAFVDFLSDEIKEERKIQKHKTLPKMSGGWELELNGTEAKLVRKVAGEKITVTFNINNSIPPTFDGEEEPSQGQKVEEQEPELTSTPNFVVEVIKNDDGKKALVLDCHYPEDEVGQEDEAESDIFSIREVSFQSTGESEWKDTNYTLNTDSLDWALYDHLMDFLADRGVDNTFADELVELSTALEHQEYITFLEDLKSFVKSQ
UniProt Q6P1S2: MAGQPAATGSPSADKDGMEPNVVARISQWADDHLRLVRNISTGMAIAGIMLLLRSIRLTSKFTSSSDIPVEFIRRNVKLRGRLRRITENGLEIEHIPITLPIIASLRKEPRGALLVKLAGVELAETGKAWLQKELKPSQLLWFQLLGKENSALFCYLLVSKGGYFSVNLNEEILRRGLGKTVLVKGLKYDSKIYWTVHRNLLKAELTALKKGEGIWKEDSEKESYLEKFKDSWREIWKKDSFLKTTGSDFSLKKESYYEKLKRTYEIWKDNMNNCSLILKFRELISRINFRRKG
UniProt Q9BVC5: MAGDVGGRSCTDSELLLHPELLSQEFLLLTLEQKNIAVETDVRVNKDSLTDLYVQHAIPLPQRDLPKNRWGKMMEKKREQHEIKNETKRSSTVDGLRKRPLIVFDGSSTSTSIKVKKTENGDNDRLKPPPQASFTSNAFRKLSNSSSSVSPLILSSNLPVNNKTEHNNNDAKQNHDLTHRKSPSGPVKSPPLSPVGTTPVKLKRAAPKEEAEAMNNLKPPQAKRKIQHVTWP
UniProt P41223: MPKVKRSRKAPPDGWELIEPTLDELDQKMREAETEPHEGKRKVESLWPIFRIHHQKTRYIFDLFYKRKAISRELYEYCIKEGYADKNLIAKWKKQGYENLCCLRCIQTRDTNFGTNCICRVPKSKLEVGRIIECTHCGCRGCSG
UniProt Q8N6N3: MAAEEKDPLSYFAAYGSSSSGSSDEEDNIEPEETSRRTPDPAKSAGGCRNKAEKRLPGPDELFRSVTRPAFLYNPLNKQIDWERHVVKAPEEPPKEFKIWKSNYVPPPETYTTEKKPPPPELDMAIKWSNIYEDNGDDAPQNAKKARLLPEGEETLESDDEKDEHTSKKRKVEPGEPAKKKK
UniProt A6NDU8: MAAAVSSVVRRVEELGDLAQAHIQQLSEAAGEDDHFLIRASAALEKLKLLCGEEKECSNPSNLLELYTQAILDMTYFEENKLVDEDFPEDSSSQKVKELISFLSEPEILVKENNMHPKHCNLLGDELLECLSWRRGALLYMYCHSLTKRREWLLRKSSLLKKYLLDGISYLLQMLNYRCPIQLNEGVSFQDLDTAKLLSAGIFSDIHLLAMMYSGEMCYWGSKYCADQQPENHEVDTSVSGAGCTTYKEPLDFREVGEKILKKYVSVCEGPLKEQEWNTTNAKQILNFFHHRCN
UniProt Q9NZ63: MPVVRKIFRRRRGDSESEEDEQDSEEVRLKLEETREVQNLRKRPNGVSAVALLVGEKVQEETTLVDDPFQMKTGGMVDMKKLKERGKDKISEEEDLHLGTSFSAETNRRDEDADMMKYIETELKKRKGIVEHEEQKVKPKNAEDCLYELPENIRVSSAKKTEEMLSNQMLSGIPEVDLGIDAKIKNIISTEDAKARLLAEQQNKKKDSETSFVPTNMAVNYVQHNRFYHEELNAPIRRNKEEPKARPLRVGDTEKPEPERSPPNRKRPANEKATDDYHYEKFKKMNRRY
UniProt Q9H8G2: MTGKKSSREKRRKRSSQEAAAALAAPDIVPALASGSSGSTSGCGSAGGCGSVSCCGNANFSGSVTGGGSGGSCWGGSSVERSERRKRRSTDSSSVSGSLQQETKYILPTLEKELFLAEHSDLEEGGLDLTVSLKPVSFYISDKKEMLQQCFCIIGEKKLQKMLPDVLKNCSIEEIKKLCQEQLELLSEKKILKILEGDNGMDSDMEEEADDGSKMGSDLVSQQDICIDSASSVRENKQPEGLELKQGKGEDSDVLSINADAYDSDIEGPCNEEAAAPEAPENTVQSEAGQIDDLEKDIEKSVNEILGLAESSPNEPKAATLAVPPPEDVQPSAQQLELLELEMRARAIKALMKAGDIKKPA
UniProt Q96B23: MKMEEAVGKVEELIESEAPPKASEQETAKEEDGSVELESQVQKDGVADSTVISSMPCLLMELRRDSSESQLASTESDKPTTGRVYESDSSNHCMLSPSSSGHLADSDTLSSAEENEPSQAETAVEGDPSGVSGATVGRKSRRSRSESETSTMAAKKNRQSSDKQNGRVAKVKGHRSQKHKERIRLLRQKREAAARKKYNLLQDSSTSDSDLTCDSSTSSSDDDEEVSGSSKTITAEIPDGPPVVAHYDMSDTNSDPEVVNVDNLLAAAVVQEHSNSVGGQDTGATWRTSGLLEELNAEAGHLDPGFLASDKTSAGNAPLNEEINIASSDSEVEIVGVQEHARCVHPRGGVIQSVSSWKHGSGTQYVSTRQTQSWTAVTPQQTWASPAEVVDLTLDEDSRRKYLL
UniProt Q8TCD1: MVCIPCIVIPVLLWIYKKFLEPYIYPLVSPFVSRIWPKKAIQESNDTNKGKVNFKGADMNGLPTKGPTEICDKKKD
UniProt P17655: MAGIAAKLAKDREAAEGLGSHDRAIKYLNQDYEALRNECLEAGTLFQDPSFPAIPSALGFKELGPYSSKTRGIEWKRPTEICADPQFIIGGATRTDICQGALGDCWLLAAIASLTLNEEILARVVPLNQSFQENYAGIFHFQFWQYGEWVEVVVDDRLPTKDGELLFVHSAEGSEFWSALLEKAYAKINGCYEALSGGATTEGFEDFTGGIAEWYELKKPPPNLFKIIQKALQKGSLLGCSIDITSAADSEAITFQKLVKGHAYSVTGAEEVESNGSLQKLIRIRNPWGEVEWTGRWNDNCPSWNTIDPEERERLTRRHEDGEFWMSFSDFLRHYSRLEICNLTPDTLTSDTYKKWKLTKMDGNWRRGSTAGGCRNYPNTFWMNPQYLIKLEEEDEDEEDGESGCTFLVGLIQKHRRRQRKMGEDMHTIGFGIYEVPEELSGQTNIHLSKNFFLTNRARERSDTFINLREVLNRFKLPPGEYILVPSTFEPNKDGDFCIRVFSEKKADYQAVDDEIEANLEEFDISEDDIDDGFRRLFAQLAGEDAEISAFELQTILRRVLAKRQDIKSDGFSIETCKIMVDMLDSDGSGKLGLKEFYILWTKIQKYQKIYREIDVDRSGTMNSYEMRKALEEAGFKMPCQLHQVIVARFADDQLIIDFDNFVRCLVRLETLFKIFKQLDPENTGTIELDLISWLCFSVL
UniProt Q8N5I9: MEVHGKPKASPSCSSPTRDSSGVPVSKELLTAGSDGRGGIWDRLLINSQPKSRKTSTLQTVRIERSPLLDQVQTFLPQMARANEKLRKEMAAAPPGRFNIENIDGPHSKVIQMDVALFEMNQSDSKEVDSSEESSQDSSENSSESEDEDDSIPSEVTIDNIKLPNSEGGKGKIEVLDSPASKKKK
UniProt Q96K31: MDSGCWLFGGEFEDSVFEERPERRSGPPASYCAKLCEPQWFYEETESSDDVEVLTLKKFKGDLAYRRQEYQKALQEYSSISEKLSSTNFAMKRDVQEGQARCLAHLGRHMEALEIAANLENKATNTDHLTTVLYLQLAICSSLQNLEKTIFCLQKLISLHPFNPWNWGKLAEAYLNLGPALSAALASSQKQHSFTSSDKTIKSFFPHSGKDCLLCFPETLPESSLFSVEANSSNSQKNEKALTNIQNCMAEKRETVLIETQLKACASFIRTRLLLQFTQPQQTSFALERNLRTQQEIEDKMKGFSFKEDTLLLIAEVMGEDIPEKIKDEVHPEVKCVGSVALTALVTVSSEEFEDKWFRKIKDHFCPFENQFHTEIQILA
UniProt Q9BRJ6: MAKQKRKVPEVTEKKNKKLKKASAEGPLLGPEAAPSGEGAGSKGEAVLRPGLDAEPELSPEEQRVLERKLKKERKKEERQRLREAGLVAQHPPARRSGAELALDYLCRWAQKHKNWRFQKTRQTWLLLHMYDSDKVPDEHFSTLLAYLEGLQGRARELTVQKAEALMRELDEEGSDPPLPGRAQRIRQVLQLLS
UniProt Q8N5S9: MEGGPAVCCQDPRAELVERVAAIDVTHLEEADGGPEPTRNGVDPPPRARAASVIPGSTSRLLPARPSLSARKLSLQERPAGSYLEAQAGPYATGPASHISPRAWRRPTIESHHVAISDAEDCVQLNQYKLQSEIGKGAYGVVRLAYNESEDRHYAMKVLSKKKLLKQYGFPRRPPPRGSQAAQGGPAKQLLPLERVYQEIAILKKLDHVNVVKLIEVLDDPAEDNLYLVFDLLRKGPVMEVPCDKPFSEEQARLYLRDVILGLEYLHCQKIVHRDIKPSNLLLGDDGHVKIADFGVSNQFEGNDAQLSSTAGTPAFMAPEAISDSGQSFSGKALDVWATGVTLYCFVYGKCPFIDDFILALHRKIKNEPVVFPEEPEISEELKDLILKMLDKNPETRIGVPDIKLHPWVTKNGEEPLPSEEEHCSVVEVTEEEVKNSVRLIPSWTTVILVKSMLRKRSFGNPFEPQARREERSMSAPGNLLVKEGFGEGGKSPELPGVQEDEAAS

[2] = compound: CC1=C(SC2=C1C(=N[C@H](C3=NN=C(N32)C)CC(=O)N)C4=CC=C(C=C4)Cl)C
Outline: as §1

[3] = compound: CC1=C2C(=CC=C1)N=C(N(C2=O)C3=CC=CC=C3C)CN4C=NC5=C(N=CN=C54)N
Outline: as §1

[4] = compound: Cc1sc2c(c1C)C(c1ccc(Cl)cc1)=N[C@@H](CC(=O)OC(C)(C)C)c1nnc(C)n1-2
Outline: as §1

[5] = compound: c1ccc([C@@H]2C[C@H]2NC2CCNCC2)cc1
Outline: as §1

Measured: log2 fold change

C12orf29 (UniProt Q8N999)
inactive: [1] -0.098 | [2] 0.071 | [3] 0.041 | [4] -0.048 | [5] -0.059

CALU isoform 3 (UniProt O43852)
inactive: [1] 0.045 | [2] 0.002 | [3] -0.044 | [4] -0.032 | [5] -0.057

CAMLG (UniProt P49069)
inactive: [1] 0.058 | [2] 0.003 | [3] 0.018 | [4] 0.05 | [5] 0.074

C7orf25 isoform 2 (UniProt Q9BPX7)
inactive: [1] -0.138 | [2] 0.067 | [3] 0.336 | [4] 0.088 | [5] 0.185

BTN2A1 (UniProt Q7KYR7)
inactive: [1] -0.001 | [2] 0.007 | [3] 0.035 | [4] -0.019 | [5] 0.024

C4orf33 (UniProt Q8N1A6)
inactive: [1] -0.038 | [2] 0.044 | [3] -0.019 | [4] -0.093 | [5] -0.031

BZW2 (UniProt Q9Y6E2)
inactive: [1] -0.046 | [2] 0 | [3] 0.004 | [4] 0.024 | [5] 0.055

CANX isoform 2 (UniProt P27824)
inactive: [1] 0.05 | [2] -0.022 | [3] -0.005 | [4] -0.027 | [5] -0.046

CAPN15 (UniProt O75808)
inactive: [1] -0.047 | [2] 0.063 | [3] -0.017 | [4] -0.011 | [5] 0.056

CAPZB (UniProt P47756)
inactive: [1] 0.005 | [2] 0.003 | [3] -0.013 | [4] 0.023 | [5] 0.028

C1orf174 (UniProt Q8IYL3)
inactive: [1] 0.01 | [2] 0.032 | [3] -0.006 | [4] -0.085 | [5] -0.084

C15orf40 (UniProt Q8WUR7)
inactive: [1] 0.027 | [2] -0.067 | [3] -0.009 | [4] -0.025 | [5] -0.031

C16orf87 (UniProt Q6PH81)
inactive: [1] -0.024 | [2] 0.048 | [3] 0.101 | [4] 0.002 | [5] 0.004

C1orf167 isoform 2 (UniProt Q5SNV9)
inactive: [1] -0.11 | [2] 0.042 | [3] 0.073 | [4] -0.133 | [5] -0.246

BYSL (UniProt Q13895)
inactive: [1] -0.046 | [2] 0.011 | [3] 0.02 | [4] 0.029 | [5] 0.041

C2CD5 isoform 3 (UniProt Q86YS7)
inactive: [1] 0.015 | [2] 0.059 | [3] 0.014 | [4] -0.009 | [5] -0.169

C16orf58 (UniProt Q96GQ5)
inactive: [1] -0.061 | [2] -0.007 | [3] 0.057 | [4] -0.103 | [5] -0.005

CALM2 (UniProt P0DP24)
inactive: [1] -0.07 | [2] -0.177 | [3] 0.009 | [4] -0.088 | [5] -0.001

C19orf54 (UniProt Q5BKX5)
inactive: [1] 0.04 | [2] 0.102 | [3] -0.007 | [4] 0.033 | [5] 0.043

C22orf39 (UniProt Q6P5X5)
inactive: [1] 0.01 | [2] -0.004 | [3] -0.138 | [4] 0.023 | [5] -0.004

C11orf68 isoform 3 (UniProt Q9H3H3)
inactive: [1] -0.007 | [2] 0.003 | [3] 0.008 | [4] -0.004 | [5] -0.085

CAPZB isoform 2 (UniProt P47756)
inactive: [1] 0.078 | [2] -0.017 | [3] 0.036 | [4] -0.013 | [5] -0.016

Three consecutive entries out of the list so far:
CALM2 (UniProt P0DP24)
inactive: [1] -0.07 | [2] -0.177 | [3] 0.009 | [4] -0.088 | [5] -0.001

C19orf54 (UniProt Q5BKX5)
inactive: [1] 0.04 | [2] 0.102 | [3] -0.007 | [4] 0.033 | [5] 0.043

C22orf39 (UniProt Q6P5X5)
inactive: [1] 0.01 | [2] -0.004 | [3] -0.138 | [4] 0.023 | [5] -0.004

The listing continues.

CALR (UniProt P27797)
inactive: [1] 0.03 | [2] -0.018 | [3] -0.026 | [4] 0.011 | [5] 0.06

C1QBP (UniProt Q07021)
inactive: [1] 0.005 | [2] -0.025 | [3] -0.008 | [4] -0.002 | [5] -0.005

CAP1 (UniProt Q01518)
inactive: [1] -0.016 | [2] 0.03 | [3] -0.024 | [4] 0.039 | [5] -0.009

C3orf33 (UniProt Q6P1S2)
inactive: [1] 0.074 | [2] 0.143 | [3] -0.386 | [4] -0.03 | [5] -0.226

C2orf49 (UniProt Q9BVC5)
inactive: [1] 0.023 | [2] 0 | [3] -0.008 | [4] -0.025 | [5] 0.027

C19orf53 (UniProt Q9UNZ5)
inactive: [1] 0.057 | [2] -0.058 | [3] 0.042 | [4] -0.016 | [5] 0.052

BUD31 (UniProt P41223)
inactive: [1] 0.012 | [2] 0.081 | [3] -0.015 | [4] 0.003 | [5] 0.082

C1orf52 (UniProt Q8N6N3)
inactive: [1] 0.013 | [2] -0.029 | [3] 0.01 | [4] -0.039 | [5] -0.028

C5orf51 (UniProt A6NDU8)
inactive: [1] -0.047 | [2] -0.023 | [3] 0.001 | [4] -0.026 | [5] 0.092

C9orf78 (UniProt Q9NZ63)
inactive: [1] 0.068 | [2] -0.018 | [3] 0.028 | [4] 0.013 | [5] 0.033

CA8 (UniProt P35219)
inactive: [1] -0.03 | [2] -0.022 | [3] 0.005 | [4] 0.032 | [5] 0.016

CAAP1 (UniProt Q9H8G2)
inactive: [1] -0.007 | [2] 0.026 | [3] 0.026 | [4] -0.086 | [5] -0.085

C11orf98 (UniProt E9PRG8)
inactive: [1] 0.015 | [2] 0.018 | [3] 0.016 | [4] -0.021 | [5] -0.038

C1orf122 (UniProt Q6ZSJ8)
inactive: [1] 0.075 | [2] 0.038 | [3] -0.032 | [4] 0.019 | [5] -0.004

C5orf30 (UniProt Q96GV9)
inactive: [1] -0.166 | [2] 0.035 | [3] -0.068 | [4] -0.018 | [5] 0.064

C18orf25 isoform 2 (UniProt Q96B23)
inactive: [1] -0.005 | [2] 0.224 | [3] 0.008 | [4] 0.089 | [5] -0.003

CAD (UniProt P27708)
inactive: [1] -0.011 | [2] 0.009 | [3] 0.003 | [4] 0.022 | [5] 0.002

C18orf32 (UniProt Q8TCD1)
inactive: [1] 0.039 | [2] 0.004 | [3] -0.245 | [4] -0.028 | [5] 0.076

CAPN2 (UniProt P17655)
inactive: [1] 0.038 | [2] 0.013 | [3] 0.044 | [4] -0.002 | [5] 0.006

C12orf45 (UniProt Q8N5I9)
inactive: [1] 0.074 | [2] 0 | [3] -0.007 | [4] -0.008 | [5] -0.122

C8orf76 (UniProt Q96K31)
inactive: [1] 0.16 | [2] 0.088 | [3] 0.024 | [4] -0.081 | [5] -0.034

C7orf50 (UniProt Q9BRJ6)
inactive: [1] 0.096 | [2] -0.053 | [3] -0.011 | [4] 0.02 | [5] 0.055

CAMKK1 isoform 2 (UniProt Q8N5S9)
inactive: [1] 0.006 | [2] 0.03 | [3] 0.011 | [4] 0.071 | [5] -0.103

CAPZA2 (UniProt P47755)
inactive: [1] 0.001 | [2] -0.015 | [3] -0.016 | [4] 0.014 | [5] 0.027
